Part of at least one peptide drawing is inferred or uncertain, most often the ends. Where a SMILES comes first, the peptide text is derived from it. [ ]: non-standard residue; d: D form. The star is where a group is joined. pGlu = O=C1CC[C@@H](C(=O)O)N1; SPy = c1ccc(S*)nc1
Experiments:
haemopoiesis [1] = test: inhibitory effect on haemopoiesis in vivo; settings: time at which the inhibitory effect occurs
Source text: By contrast it is also possible to prepare peptides having a metabolically labile blocking group so that slow release of the unblocked peptide can be achieved in vivo. Thus according to a further aspect of the invention we provide compounds of formula [drawing 10] wherein R^a, R^b, R^c, R^e, R^f and n are as defined for formula I, R^12 is a metabolically labile group, for example a 2-pyridylthio group, and all amino acids have the chiral form stated for formula (I).

haemopoiesis [2] = test: haemopoietic inhibitory effects

Structure (SMILES)	inhibitory effect on haemopoiesis, occurring after (haemopoiesis [1])	haemopoietic inhibitory effects (haemopoiesis [2])
NCCCC[C@H](NC(=O)[C@H](CSSc1ccccn1)NC(=O)[C@H](CC(=O)O)NC(=O)[C@H](CCC(=O)O)NC(=O)[C@@H]1CCC(=O)N1)C(=O)O [Example 15, pGlu--Glu--Asp-(2-pyridylthio-Cys)Lys] ([pGlu]EDC(SPy)K-OH)	3 days	–
NCCCC[C@H](NC(=O)[C@H](CS)NC(=O)[C@H](CC(=O)O)NC(=O)CNC(=O)[C@@H]1CCC(=O)N1)C(=O)O [Example 22, pGlu--Gly--Asp--Cys--Lys] ([pGlu]GDCK-OH)	–	haemopoietic inhibitory effects

Reference: patent publication US5484770A, “Peptide compounds which inhibit the proliferation of epidermal or epithelial stem cells” (Hafslund Nycomed Bioreg AS, priority 1988, dated 1996)
